Patent US20220289865A1 (MINERVA BIOTECHNOLOGIES, published 2022)
These are yes or no findings as the source states them, for the method shown. In cells and extracts the contact can be indirect. Some results given as binding are weak or reduced against the parent protein; the word gives no strength.

The chains behind the UniProt entries cited, without tags or fusion partners. Where a name states a change or a piece, a line headed by the entry shows the natural chain unless it says otherwise. Residues count along the entry.
UniProt P15941, residues 1110-1255: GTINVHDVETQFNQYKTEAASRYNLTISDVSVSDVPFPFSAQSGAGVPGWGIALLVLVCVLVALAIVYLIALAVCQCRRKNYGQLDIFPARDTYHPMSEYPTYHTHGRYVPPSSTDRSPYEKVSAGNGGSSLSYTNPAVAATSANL
UniProt Q9Y5B8: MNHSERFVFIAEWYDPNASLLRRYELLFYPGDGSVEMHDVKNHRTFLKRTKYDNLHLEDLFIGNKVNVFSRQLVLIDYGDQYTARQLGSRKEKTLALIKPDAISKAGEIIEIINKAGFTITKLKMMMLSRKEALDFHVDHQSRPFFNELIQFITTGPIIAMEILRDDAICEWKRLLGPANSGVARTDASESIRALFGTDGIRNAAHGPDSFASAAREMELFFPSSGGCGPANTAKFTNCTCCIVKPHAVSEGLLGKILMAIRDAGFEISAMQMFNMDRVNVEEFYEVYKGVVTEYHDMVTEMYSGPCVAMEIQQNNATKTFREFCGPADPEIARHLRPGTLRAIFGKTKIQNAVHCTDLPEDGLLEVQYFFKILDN

Key:
[1] = biological target: MUC1* (cleaved MUC1 growth factor receptor) of human cells (human) (UniProt P15941); experiment: co-immunoprecipitation from T47D extracts with Ab-5, Western blot
[2] = biological target: MUC1* (cleaved MUC1 growth factor receptor) of human cells (human) (UniProt P15941); experiment: co-immunoprecipitation from T47D and stem cell extracts with Ab-5, Western blot
[3] = biological target: MUC1* (cleaved MUC1 growth factor receptor) of human cells (human) (UniProt P15941); experiment: co-immunoprecipitation from iPS7 and HES3 stem cell extracts with Ab-5, Western blot
[4] = biological target: MUC1* (cleaved MUC1 growth factor receptor) of human cells (human) (UniProt P15941); experiment: co-immunoprecipitation with Ab-5, Western blot

binding [1]	binding [2]	binding [3]	binding [4]	Molecule
binds	binds	binds	–	NME7-X1 (~30 kDa NME7 isoform) (from UniProt Q9Y5B8 125-376) (ligand)
–	–	–	binds	native human NME6 from cell lysates (ligand) MTQNLGSEMASILRSPQALQLTLALIKPDAVAHPLILEAVHQQILSNKFLIVRMRELLWRKEDCQRFYREHEGRFFYQRLVEFMASGPIRAYILAHKDAIQLWRTLMGPTRVFRARHVAPDSIRGSFGLTDTRNTTHGSDSVVSASREIAAFFPDFSEQRWYEEEEPQLRCGPVCYSPEGGVHYVAGTGGLGPA
